{"source": "patent US20210236575A1", "about": "(priority 2018, published 2021)", "origin": "cited, not measured here", "biological_target": "CB1 receptor", "conditions": "read-out: Ki affinity binding; Stefano et al, 1997; cited from earlier work"}
{"compound": "NCCCC(=O)O", "note": "[GABA, Gamma aminobutyric acid]", "values": [{"measurement": "Ki", "result": "760 to 1000", "unit": "nM"}]}
